Record: PubChem BioAssay AID1259405 (NCATS, 2018)

Purpose: 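Knock-downs that lift recombinant protein yield in hamster ovary cells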 (primary screen)
System: Chinese hamster CHO-K1 ovary cells with stable secreted eGFP expression
Reagent: single siRNA against mouse genes, 0.8 pmol siRNA per well (2 µl of 400 nM stock)
Timing: 3 days
Detection: 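Per-well intracellular GFP measured by laser scanning cytometry, plus viability from ATP luminescence, each relative to plate median of non-targeting control wells, in %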
Reading the numbers: GFP, % of control: higher = more GFP per well, higher productivity; viability (ATP), % of control: higher = more viable cells (more ATP)
Active means: 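Called active when intracellular GFP, relative to negative control, is at or above 120%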
This is a random part of about 50,000 reagents. About 4,000 of all reagents (8%) count as active. 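Mouse siRNA library applied to hamster cells; one well for each siRNA.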 Unmarked entries are inactive. Reagents against one gene are numbered here.

target | reagent no. | GFP, % of control | viability (ATP), % of control
Krt39 (GeneID 237934) | 1 | 63.2 | 96
Krt39 (GeneID 237934) | 2 | 53.1 | 54.2
Utp11 (GeneID 67205) | 1 | 76.6 | 66.4
Utp11 (GeneID 67205) | 2 | 93.3 | 47.1
Utp11 (GeneID 67205) | 3 | 34.8 | 54.9
Spata2l (GeneID 78779) | 1 | 57.7 | 70.6
Spata2l (GeneID 78779) | 2 | 77.4 | 72.4
Spata2l (GeneID 78779) | 3 | 81.8 | 81
Slc16a2 (GeneID 20502) | 1 | 95.5 | 95
Slc16a2 (GeneID 20502) | 2 | 71.1 | 42.4
Slc16a2 (GeneID 20502) | 3 | 72.3 | 71.1
Dffa (GeneID 13347) | 1 | 87.2 | 121
Dffa (GeneID 13347) | 2 | 191 (active) | 150
Zfp952 (GeneID 240067) | 1 | 160 (active) | 119
Zfp952 (GeneID 240067) | 2 | 77 | 79.9
Zfp952 (GeneID 240067) | 3 | 80.8 | 82.1
Klri2 (GeneID 320407) | 1 | 62.1 | 17.2
Klri2 (GeneID 320407) | 2 | 70.7 | 97.9
Klri2 (GeneID 320407) | 3 | 59.2 | 90.9
Pebp4 (GeneID 73523) | 1 | 77.1 | 38
Pebp4 (GeneID 73523) | 2 | 76.3 | 79.4
Pebp4 (GeneID 73523) | 3 | 41.6 | 40.7
1600014C10Rik (GeneID 72244) | 1 | 116 | 106
1600014C10Rik (GeneID 72244) | 2 | 79.1 | 90.7
1600014C10Rik (GeneID 72244) | 3 | 127 (active) | 89.6
Ppp1r2 (GeneID 66849) | 1 | 62.9 | 81.1
Ppp1r2 (GeneID 66849) | 2 | 87.7 | 80.5
Ppp1r2 (GeneID 66849) | 3 | 76.8 | 75.2
Zfp14 (GeneID 243906) | 1 | 61.7 | 55.3
Zfp14 (GeneID 243906) | 2 | 66.8 | 73.5
Zfp14 (GeneID 243906) | 3 | 108 | 95.3
Tmem192 (GeneID 73067) | 1 | 121 (active) | 75
Tmem192 (GeneID 73067) | 2 | 61 | 58.4
Tmem192 (GeneID 73067) | 3 | 82.5 | 73.4

Copied from the list.
Under “GFP, % of control”, Spata2l (GeneID 78779) #3 reads 81.8
For “GFP, % of control”, Klri2 (GeneID 320407) #2 reads 70.7
For “viability (ATP), % of control”, Tmem192 (GeneID 73067) #1 shows 75 (active)
Entry of Tmem192 (GeneID 73067) #2 under “viability (ATP), % of control”: 58.4
